# Drug screen on melanoma cell lines: cell count

Data from the primary screen of doi:10.1371/journal.pone.0140310, rounded.

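The test systems are human melanoma cell lines, treated with a pair of drugs for 72 h and then stained and imaged. The read-out is cell count (nuclei) in % of the DMSO control; lower values mean stronger growth inhibition or killing. Concentrations were fixed for each drug; these are the lower of two levels, a fifth of the higher. The file gives one value for each pair and line, without errors, so small differences may be noise.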
This is part of the screen, not chosen by result.

All values are for the listed drug together with tamatinib (0.4 µM): COc1cc(Nc2ncc(F)c(Nc3ccc4c(n3)NC(=O)C(C)(C)O4)n2)cc(OC)c1OC

Drugs:
LFM-A13: C/C(O)=C(\C#N)C(=O)Nc1cc(Br)ccc1Br at 2 µM
BI-D1870: CC(C)CCN1c2nc(Nc3cc(F)c(O)c(F)c3)ncc2N(C)C(=O)C1C (centres undefined) at 0.2 µM
T0901317: O=S(=O)(c1ccccc1)N(CC(F)(F)F)c1ccc(C(O)(C(F)(F)F)C(F)(F)F)cc1 at 1.4 µM
NVP-TAE684: COc1cc(N2CCC(N3CCN(C)CC3)CC2)ccc1Nc1ncc(Cl)c(Nc2ccccc2S(=O)(=O)C(C)C)n1 at 0.08 µM
A-769662: N#Cc1c(O)c2c(-c3ccc(-c4ccccc4O)cc3)csc2[nH]c1=O at 2 µM

| Cell line | BI-D1870 | A-769662 | LFM-A13 | T0901317 | NVP-TAE684 |
|---|---|---|---|---|---|
| A101D | 73.1 | 90.9 | 76.3 | 76.5 | 76.6 |
| LB2518-MEL | 79.3 | 89.4 | 108 | 88.5 | 75.8 |
| G-361 | 114 | 95.8 | 92.7 | 74.0 | 84.5 |
| MEL-HO | 77.4 | 68.0 | 89.5 | 128 | 89.5 |
| A375 | 102 | 77.7 | 75.4 | 93.5 | 70.9 |
| COLO 792 | 57.2 | 60.8 | 68.3 | 60.7 | 52.6 |
| COLO 829 | 108 | 90.3 | 100 | 89.7 | 88.7 |
| COLO 800 | 67.7 | 73.4 | 74.8 | 46.6 | 102 |
| 501mel | 80.6 | 95.7 | 80.2 | 98.8 | 77.1 |
| LOX IMVI | 188 | 73.8 | 61.9 | 64.2 | 59.5 |
| C32 | 93.3 | 90.5 | 104 | 83.1 | 91.5 |
| IPC-298 | 79.3 | 78.3 | 83.5 | 81.2 | 81.3 |
| IST-MEL1 | 94.8 | 95.3 | 99.6 | 92.9 | 95.7 |
| A2058 | 78.8 | 75.9 | 84.4 | 81.2 | 74.7 |